PubChem BioAssay AID1508588 – Peter MacCallum Cancer Centre | 2020
Aim: 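Which gene losses make BRAF-mutant melanoma cells more responsive to vemurafenib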 (primary screen). System: human WM266.4 melanoma cells (BRAF V600 mutant). Reagent: siRNA pool against human genes, 40 nM. Timing: 96 h from transfection to read-out. Treatment: vemurafenib 300 nM (about IC25), added 48 h after transfection, for 48 h; comparison arm got DMSO vehicle only. Measurement: 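Ratios to non-targeting siRNA for cell gain, counted as DAPI nuclei after minus before drug and averaged over two replicates, and for absorbance-read medium lactate per cell; both binned into fold-change classes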. Direction: cell gain with vemurafenib: higher = more cell gain than with non-targeting siRNA; lactate per cell with vemurafenib: higher = more lactate made per cell. Rule for the call: 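a knock-down counts as enhancing when its fold-change classes with vehicle and with vemurafenib, taken together, show a stronger drug effect on cell gain or lactate per cell; exact class pairs not stated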. Calls: active = enhances vemurafenib effect; inactive = no enhancement seen.
Shown is one part, drawn at random, of about 18,000 reagents tested. Over the whole deposit, 790 (4.4%) are marked active. 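Calls rest on a combination of fold-change classes in drug and vehicle arms, not all shown here.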 Entries without a mark were called inactive.

HSF1 (heat shock transcription factor 1): cell gain with vemurafenib = 0.22 (active); lactate per cell with vemurafenib = 0.14
PRDM2 (PR/SET domain 2): cell gain with vemurafenib = 0.88; lactate per cell with vemurafenib = 1.06
RB1CC1 (RB1 inducible coiled-coil 1): cell gain with vemurafenib = 0.32; lactate per cell with vemurafenib = 0.51
EFHC2 (EF-hand domain containing 2): cell gain with vemurafenib = 0.71; lactate per cell with vemurafenib = 0.86
CHD3 (chromodomain helicase DNA binding protein 3): cell gain with vemurafenib = 0.26; lactate per cell with vemurafenib = 1.36
PTGFR (prostaglandin F receptor): cell gain with vemurafenib = 1.03; lactate per cell with vemurafenib = 0.6
STH (saitohin): cell gain with vemurafenib = 0.56; lactate per cell with vemurafenib = 1.44
WDR73 (WD repeat domain 73): cell gain with vemurafenib = 1.12; lactate per cell with vemurafenib = 0.8
SPATA31E1 (SPATA31 subfamily E member 1): cell gain with vemurafenib = 0.71 (active); lactate per cell with vemurafenib = 0.02
FRG2 (FSHD region gene 2): cell gain with vemurafenib = 0.57; lactate per cell with vemurafenib = 1.38
CAGE1 (cancer antigen 1): cell gain with vemurafenib = 0.54; lactate per cell with vemurafenib = 0.84
ICOS (inducible T cell costimulator): cell gain with vemurafenib = 0.39; lactate per cell with vemurafenib = 0.84
CC2D2B (coiled-coil and C2 domain containing 2B): cell gain with vemurafenib = 0.82; lactate per cell with vemurafenib = 0.86
FGF2 (fibroblast growth factor 2): cell gain with vemurafenib = 0.67; lactate per cell with vemurafenib = 0.58
SIGLEC12 (sialic acid binding Ig like lectin 12): cell gain with vemurafenib = 0.46; lactate per cell with vemurafenib = 0.88
SERF2 (small EDRK-rich factor 2): cell gain with vemurafenib = 0.46; lactate per cell with vemurafenib = 1.3
SERP2: cell gain with vemurafenib = 0.29; lactate per cell with vemurafenib = 0.9
USP45 (ubiquitin specific peptidase 45): cell gain with vemurafenib = 0.93; lactate per cell with vemurafenib = 0.52
F2R (coagulation factor II thrombin receptor): cell gain with vemurafenib = 0.79; lactate per cell with vemurafenib = 0.44
PABPC1L2A (poly(A) binding protein cytoplasmic 1 like 2A): cell gain with vemurafenib = 0.26; lactate per cell with vemurafenib = 2.21
LRRC32 (leucine rich repeat containing 32): cell gain with vemurafenib = 0.1; lactate per cell with vemurafenib = 1.65
ANG (angiogenin): cell gain with vemurafenib = 0.54; lactate per cell with vemurafenib = 0.88
OR2H1 (olfactory receptor family 2 subfamily H member 1): cell gain with vemurafenib = 0.6; lactate per cell with vemurafenib = 0.55
PCSK1N (proprotein convertase subtilisin/kexin type 1 inhibitor): cell gain with vemurafenib = 0.35; lactate per cell with vemurafenib = 2.16
MYO5A (myosin VA): cell gain with vemurafenib = 0.81; lactate per cell with vemurafenib = 0.53
FMO1 (flavin containing dimethylaniline monoxygenase 1): cell gain with vemurafenib = 0.36; lactate per cell with vemurafenib = 1.06
PYY (peptide YY): cell gain with vemurafenib = 0.44; lactate per cell with vemurafenib = 0.84
C2CD2L (C2CD2 like): cell gain with vemurafenib = 0.63; lactate per cell with vemurafenib = 1.52
KRTAP9-3 (keratin associated protein 9-3): cell gain with vemurafenib = 0.42; lactate per cell with vemurafenib = 2
CPSF7 (cleavage and polyadenylation specific factor 7): cell gain with vemurafenib = 0.67; lactate per cell with vemurafenib = 0.94
ZNF670 (zinc finger protein 670): cell gain with vemurafenib = 0.91; lactate per cell with vemurafenib = 1.04
RBFOX2 (RNA binding fox-1 homolog 2): cell gain with vemurafenib = -0.02; lactate per cell with vemurafenib = 1.64
CCDC74B (coiled-coil domain containing 74B): cell gain with vemurafenib = 0.97; lactate per cell with vemurafenib = 1.31
SEC31B (SEC31 homolog B, COPII component): cell gain with vemurafenib = 0.43; lactate per cell with vemurafenib = 0.9
SUCLA2 (succinate-CoA ligase ADP-forming subunit beta): cell gain with vemurafenib = 0.62; lactate per cell with vemurafenib = 1.52
APH1A (aph-1A gamma-secretase subunit): cell gain with vemurafenib = 0.8; lactate per cell with vemurafenib = 0.68
CD109 (CD109 molecule): cell gain with vemurafenib = 0.73; lactate per cell with vemurafenib = 0.52
FOXA1 (forkhead box A1): cell gain with vemurafenib = 0.03; lactate per cell with vemurafenib = 2.69
ZIC4 (Zic family zinc finger 4): cell gain with vemurafenib = 0.5; lactate per cell with vemurafenib = 0.78
TMEM80 (transmembrane protein 80): cell gain with vemurafenib = 0.61; lactate per cell with vemurafenib = 1.17

Part of the list above in another layout:
SERP2
- cell gain with vemurafenib: 0.29
- lactate per cell with vemurafenib: 0.9

USP45 (ubiquitin specific peptidase 45)
- cell gain with vemurafenib: 0.93
- lactate per cell with vemurafenib: 0.52

F2R (coagulation factor II thrombin receptor)
- cell gain with vemurafenib: 0.79
- lactate per cell with vemurafenib: 0.44

PABPC1L2A (poly(A) binding protein cytoplasmic 1 like 2A)
- cell gain with vemurafenib: 0.26
- lactate per cell with vemurafenib: 2.21

LRRC32 (leucine rich repeat containing 32)
- cell gain with vemurafenib: 0.1
- lactate per cell with vemurafenib: 1.65

ANG (angiogenin)
- cell gain with vemurafenib: 0.54
- lactate per cell with vemurafenib: 0.88
